Reference: US3972883A, “1,6-Dimethyl-8β-[2' or 3'-pyrroyloxyethyl or substituted pyrroyloxyethyl]-10α-methoxyergolene compounds” (Societa Farmaceutici Italia S.p.A., priority 1973, dated 1976)
At least one structure is not confirmed: it was looked up by name or label, or the drawing left a doubt.

Assay: Pharmacological activity of intermediates, general statement

COC(=O)C[C@H]1CN(C)[C@@H]2Cc3cn(C)c4cccc(c34)[C@@]2(OC)C1 [(IV), 1,6-Dimethyl-10α-methoxy-8β-ergolinyl-acetic acid methyl ester]
pharmacological activity: slight pharmacological activity
